Source: paper doi:10.1101/2022.12.18.520954

Target: endogenous LvSTING in shrimp hemocytes (Litopenaeus vannamei (endogenous in shrimp hemocytes))
Assay: co-IP

**Q.** “endogenous LvIRF in shrimp hemocytes (from UniProt A0A0R6M5F1)” was tested. Which binding did it give?
**A.** binds

These are yes or no findings as the source states them, for the method shown. Binding seen in cells or lysates may run through a third protein. A result given as binding can be weak or reduced; the word gives no strength.
